Experimental data from patent EP1757588A1, “Polymorph of N-Piperidinyl-5-(4-chlorophenyl)-1-(2,4-dichlorophenyl)-4,5-dihydro-1H-pyrazole-3-carboxamide and its use as a cannabinoid receptor modulator” (LABORATORIOS DEL DR. ESTEVE, S.A., priority 2005, dated 2007).
For at least one compound, name, drawing or mass did not settle the structure.

Test system: rats
Experiment: In vivo testing for antiobesic activity

O=C(NN1CCCCC1)C1=NN(c2ccc(Cl)cc2Cl)C(c2ccc(Cl)cc2)C1 (stereo not drawn) [Example 1, N-piperidinyl-5-(4-chlorophenyl)-1-(2,4-dichlorophenyl)-4,5-dihydro-1H-pyrazole-3-carboxamide]
body weight (10 mg/kg body weight intraperitoneally daily over 14 days, Figure 1): lowered | food intake (10 mg/kg body weight intraperitoneally daily over 14 days, Figure 2): reduction | body weight effect after the treatment is ended (after end of 14 days of 10 mg/kg intraperitoneally daily, Figure 1): also observed after the treatment is ended
